Data reported in patent publication US20170095421A1, “SYNTHETIC PLATELETS” (Maria I. C. Gyongyossy-Issa, priority 2006, published 2017).
These are yes or no findings as the source states them, for the method shown. Binding can be weak; no strength is given.

B1: L-brown (peptide)
peptide: SHAYIGLKDR
B2: L-black (peptide)
peptide: EVLKYTLFQI

Molecular target: purified glycoprotein Ib (GPIb)
Assay: overlapping vWf 10-mer L-peptide array on cellulose membrane probed with purified GPIb, anti-GPIb-HRP

Row | Binder | binding
1 | B1 | binds
2 | B2 | binds
